Literature values as cited in patent US20110152214A1, “SILK POLYMER-BASED ADENOSINE RELEASE: THERAPEUTIC POTENTIAL FOR EPILEPSY” (TRUSTEES OF TUFTS COLLEGE, priority 2008, published 2011).
At least one compound was matched to its structure with a doubt left.

Test system: rat kindling model
Details: Silver et al., 1991; cited from earlier work

In the case of `CCC1(c2ccccc2)C(=O)NC(=O)NC1=O` [phenobarbital], the “effect on kindling development / antiepileptogenesis” value is given as “partial antiepileptogenic effects”.
